Reference: the supplement of paper PMC12067093, “Discovery and optimisation of a covalent ligand for TRIM25 and its application to targeted protein ubiquitination” (Chemical Science, 2025)
The list shows a part of the results.

The chains behind the UniProt entries cited, without tags or fusion partners. Where a name states a change or a piece, a line headed by the entry shows the natural chain unless it says otherwise.
UniProt Q9H3U1: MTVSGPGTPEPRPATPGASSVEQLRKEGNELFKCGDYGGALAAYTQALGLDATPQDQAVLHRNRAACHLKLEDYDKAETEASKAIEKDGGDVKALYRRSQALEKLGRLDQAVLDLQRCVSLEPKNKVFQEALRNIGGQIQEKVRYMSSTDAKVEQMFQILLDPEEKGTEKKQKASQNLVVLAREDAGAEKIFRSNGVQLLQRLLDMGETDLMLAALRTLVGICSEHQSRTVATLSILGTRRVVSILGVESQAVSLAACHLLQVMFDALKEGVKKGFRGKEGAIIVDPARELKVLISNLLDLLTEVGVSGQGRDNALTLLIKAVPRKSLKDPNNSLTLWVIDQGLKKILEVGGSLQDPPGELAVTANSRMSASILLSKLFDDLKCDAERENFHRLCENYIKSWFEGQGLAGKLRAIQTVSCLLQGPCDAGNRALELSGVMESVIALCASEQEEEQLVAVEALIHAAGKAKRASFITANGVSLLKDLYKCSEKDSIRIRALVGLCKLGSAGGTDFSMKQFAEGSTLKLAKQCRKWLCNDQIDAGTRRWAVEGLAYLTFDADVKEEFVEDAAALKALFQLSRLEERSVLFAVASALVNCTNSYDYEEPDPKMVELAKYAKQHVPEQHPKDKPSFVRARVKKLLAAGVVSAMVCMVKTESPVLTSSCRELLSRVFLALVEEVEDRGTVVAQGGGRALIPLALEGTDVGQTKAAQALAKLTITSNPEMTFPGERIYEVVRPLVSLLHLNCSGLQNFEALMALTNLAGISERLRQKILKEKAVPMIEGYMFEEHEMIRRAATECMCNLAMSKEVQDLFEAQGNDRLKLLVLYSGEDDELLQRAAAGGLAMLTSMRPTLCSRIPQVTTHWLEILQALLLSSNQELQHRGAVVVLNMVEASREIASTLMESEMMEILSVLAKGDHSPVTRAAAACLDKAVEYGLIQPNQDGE
UniProt A6NIH7: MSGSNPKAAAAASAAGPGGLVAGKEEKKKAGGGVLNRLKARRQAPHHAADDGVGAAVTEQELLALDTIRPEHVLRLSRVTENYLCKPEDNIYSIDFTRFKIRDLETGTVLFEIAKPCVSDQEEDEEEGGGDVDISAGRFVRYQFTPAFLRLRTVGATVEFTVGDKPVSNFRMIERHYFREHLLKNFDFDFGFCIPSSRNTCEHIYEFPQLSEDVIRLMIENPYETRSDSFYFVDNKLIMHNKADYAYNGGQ
UniProt Q16851: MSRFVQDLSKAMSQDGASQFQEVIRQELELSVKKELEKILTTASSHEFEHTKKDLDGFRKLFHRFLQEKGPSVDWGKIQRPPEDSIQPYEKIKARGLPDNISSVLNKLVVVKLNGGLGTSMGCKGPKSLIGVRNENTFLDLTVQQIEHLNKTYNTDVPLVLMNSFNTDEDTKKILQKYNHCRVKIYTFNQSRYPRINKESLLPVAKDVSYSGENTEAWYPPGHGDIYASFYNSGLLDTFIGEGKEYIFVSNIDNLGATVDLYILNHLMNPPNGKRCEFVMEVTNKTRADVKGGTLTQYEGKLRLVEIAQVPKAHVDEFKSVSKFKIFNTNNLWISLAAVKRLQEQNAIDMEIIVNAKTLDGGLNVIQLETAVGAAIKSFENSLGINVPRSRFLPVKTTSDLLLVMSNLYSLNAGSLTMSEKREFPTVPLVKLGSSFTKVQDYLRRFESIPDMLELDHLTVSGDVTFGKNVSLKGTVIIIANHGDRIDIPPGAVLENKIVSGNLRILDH
UniProt Q8N806: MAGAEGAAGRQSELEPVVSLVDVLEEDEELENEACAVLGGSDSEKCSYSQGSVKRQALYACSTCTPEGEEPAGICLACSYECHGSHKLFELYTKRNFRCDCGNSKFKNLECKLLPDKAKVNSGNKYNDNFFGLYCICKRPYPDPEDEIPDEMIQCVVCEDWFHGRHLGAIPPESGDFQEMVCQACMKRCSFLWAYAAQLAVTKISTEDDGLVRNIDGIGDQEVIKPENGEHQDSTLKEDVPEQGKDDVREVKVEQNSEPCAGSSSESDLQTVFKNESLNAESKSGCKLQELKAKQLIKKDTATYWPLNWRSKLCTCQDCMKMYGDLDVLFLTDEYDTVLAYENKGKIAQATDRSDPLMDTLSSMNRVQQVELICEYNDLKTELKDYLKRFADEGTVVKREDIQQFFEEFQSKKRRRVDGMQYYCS
UniProt Q13107: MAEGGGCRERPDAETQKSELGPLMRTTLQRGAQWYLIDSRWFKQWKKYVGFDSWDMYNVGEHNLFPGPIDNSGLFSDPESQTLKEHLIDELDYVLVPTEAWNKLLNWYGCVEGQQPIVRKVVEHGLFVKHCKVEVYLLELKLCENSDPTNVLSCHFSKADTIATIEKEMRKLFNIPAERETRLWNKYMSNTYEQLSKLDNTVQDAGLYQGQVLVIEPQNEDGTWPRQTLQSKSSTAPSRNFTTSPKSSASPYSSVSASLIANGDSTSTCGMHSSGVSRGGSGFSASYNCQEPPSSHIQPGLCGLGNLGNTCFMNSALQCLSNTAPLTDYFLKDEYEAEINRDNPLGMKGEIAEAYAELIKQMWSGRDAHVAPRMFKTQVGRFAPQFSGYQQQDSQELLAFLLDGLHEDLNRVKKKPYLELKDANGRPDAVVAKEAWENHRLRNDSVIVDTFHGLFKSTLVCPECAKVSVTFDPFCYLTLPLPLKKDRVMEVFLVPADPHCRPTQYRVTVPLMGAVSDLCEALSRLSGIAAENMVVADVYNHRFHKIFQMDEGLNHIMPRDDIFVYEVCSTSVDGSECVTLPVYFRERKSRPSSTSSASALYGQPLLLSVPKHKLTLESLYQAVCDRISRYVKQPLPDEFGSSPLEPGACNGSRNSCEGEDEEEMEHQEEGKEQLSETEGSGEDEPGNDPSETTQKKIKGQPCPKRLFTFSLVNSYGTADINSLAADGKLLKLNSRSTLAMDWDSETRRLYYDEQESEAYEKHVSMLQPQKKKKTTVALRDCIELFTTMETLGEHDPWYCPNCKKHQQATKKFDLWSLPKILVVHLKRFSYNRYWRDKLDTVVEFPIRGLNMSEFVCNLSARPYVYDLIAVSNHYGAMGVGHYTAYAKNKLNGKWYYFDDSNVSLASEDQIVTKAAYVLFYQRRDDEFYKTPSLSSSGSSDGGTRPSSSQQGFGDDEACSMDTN
UniProt P31930: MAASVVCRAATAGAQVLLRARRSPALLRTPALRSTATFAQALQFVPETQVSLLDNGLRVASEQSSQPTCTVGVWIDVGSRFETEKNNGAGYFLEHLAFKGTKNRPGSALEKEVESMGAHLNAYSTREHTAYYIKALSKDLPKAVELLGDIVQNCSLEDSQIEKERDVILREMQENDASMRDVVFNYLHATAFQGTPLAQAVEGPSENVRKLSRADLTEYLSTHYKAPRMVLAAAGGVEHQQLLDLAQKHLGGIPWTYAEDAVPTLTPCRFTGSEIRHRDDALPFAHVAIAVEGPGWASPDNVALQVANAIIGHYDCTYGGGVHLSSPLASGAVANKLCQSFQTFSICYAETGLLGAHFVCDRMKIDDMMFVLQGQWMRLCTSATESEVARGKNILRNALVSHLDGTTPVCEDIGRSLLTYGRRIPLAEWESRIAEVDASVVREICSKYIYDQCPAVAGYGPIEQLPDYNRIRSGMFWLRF
UniProt Q96T88: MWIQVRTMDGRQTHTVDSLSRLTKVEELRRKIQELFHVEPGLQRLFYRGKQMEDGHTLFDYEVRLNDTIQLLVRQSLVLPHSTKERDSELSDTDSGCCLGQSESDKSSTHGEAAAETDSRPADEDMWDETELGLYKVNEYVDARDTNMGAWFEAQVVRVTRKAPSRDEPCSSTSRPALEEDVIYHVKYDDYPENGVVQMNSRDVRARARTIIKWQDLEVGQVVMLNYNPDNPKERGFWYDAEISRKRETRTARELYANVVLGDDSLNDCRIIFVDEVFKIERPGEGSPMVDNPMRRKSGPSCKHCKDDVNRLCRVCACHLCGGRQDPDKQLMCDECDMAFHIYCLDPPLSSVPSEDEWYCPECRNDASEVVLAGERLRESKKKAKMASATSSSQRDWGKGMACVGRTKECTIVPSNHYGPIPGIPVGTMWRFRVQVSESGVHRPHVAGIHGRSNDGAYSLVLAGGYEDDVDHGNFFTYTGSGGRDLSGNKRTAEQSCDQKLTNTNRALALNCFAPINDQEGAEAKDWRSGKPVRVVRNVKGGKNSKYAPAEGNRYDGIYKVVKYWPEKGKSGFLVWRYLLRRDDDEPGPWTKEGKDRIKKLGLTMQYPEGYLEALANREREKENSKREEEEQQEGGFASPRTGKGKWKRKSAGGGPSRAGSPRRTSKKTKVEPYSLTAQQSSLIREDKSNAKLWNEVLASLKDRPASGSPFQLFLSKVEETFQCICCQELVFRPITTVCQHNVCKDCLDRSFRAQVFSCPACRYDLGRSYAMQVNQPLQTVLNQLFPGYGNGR
UniProt P17480: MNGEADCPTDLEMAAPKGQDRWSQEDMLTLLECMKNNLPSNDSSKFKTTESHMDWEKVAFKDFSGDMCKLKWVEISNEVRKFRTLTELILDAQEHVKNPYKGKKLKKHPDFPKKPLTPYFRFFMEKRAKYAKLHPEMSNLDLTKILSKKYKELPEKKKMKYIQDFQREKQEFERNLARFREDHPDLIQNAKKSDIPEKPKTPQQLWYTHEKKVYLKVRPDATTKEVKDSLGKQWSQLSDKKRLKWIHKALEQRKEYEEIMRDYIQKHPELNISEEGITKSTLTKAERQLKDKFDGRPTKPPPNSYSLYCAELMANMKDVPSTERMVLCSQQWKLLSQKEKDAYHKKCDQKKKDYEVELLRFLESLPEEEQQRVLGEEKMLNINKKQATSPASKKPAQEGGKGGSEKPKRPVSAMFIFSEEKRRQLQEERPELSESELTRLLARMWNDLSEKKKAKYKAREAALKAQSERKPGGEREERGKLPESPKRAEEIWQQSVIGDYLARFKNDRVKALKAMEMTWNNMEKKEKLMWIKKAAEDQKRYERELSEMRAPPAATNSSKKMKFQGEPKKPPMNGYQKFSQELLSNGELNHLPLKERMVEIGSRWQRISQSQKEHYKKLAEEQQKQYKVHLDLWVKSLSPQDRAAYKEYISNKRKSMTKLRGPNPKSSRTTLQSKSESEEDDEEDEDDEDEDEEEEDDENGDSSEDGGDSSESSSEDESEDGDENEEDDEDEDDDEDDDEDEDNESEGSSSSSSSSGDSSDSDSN
UniProt Q9BRT2: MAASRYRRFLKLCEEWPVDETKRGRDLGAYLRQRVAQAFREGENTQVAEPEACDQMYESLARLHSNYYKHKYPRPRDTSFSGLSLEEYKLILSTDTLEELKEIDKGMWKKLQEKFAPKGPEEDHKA
UniProt O94966: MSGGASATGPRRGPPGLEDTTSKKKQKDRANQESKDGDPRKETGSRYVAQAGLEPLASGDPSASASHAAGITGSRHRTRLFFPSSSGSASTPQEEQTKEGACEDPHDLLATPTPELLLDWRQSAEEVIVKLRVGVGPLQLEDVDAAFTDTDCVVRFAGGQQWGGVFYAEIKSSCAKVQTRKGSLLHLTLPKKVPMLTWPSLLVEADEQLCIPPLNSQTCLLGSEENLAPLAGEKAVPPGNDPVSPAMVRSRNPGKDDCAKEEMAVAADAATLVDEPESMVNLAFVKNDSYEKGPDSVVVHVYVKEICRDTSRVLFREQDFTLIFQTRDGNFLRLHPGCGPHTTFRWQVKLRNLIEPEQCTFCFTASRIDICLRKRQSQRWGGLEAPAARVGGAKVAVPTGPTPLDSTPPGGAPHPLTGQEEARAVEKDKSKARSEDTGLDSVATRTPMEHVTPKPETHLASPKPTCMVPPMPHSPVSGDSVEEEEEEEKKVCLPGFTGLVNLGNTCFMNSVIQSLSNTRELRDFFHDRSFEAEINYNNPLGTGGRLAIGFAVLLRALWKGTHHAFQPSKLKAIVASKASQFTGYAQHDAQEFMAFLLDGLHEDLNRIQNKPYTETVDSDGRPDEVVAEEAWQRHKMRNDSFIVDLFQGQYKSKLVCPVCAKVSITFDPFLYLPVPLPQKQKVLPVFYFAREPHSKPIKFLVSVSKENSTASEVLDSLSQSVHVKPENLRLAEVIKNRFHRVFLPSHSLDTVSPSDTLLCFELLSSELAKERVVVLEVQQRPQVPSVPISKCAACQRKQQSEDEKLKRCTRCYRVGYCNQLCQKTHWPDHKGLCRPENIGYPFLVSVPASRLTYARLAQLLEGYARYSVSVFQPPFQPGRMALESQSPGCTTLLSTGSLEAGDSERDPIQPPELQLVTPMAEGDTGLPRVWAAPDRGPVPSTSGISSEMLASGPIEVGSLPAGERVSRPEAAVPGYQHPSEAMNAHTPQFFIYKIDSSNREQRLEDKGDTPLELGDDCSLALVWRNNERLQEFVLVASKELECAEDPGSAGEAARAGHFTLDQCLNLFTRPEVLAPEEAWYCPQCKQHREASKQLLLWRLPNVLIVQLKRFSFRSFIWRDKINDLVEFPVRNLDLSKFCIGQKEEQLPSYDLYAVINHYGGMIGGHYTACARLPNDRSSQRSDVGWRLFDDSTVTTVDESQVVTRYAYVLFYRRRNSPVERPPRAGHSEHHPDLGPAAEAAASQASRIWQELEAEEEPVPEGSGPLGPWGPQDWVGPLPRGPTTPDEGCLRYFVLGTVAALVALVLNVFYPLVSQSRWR

Compound: CC1Cc2ccccc2N1C(=O)C1CCCN(C1)C(=O)CCl (mixture of isomers) [TRIM25 ligand 11 (diastereomer mixture)]
Assay: probe-labelled cysteine peptide fold change vs DMSO (competition) (log2 fold change); higher = less target engagement (more negative = stronger competition)
Settings: THP-1, incubation time: 4 h
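Further: competitive chemoproteomic profiling in live THP-1 cells with an iodoacetamide desthiobiotin (IA-DTB) probe, comparing probe-labelled peptide intensities in compound-treated cells against DMSO-treated controls.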

Target | probe-labelled cysteine peptide fold change (10 µM) | probe-labelled cysteine peptide fold change (50 µM)
UPP1_Q16831_17_AESHNDCPVR (UniProt Q16831) | -0.161 | -0.221
USP47_Q96K76_856_AGGDSGNVDDDCER (UniProt Q96K76) | 0.0394 | -0.0113
URB1_O60287_473_TVDHCLNK (UniProt O60287) | -0.0216 | 0.35
USP7_Q93009_702+711_SLNYCGHIYTPISCK (UniProt Q93009) | -0.116 | -0.0186
UROD_P06132_66_SPEACCELTLQPLR (UniProt P06132) | -0.0484 | -0.048
UNC45A_Q9H3U1_395_LCENYIK (UniProt Q9H3U1) | -0.0032 | 0.135
UHRF2_Q96PU4_14_TCTIEDVSR (UniProt Q96PU4) | -0.0173 | -0.103
USP40_Q9NVE5_798_ELADNSCLRPIDR (UniProt Q9NVE5) | 0.0166 | -0.0142
UNC119B_A6NIH7_201_NTCEHIYEFPQLSEDVIR (UniProt A6NIH7) | 0.0351 | -0.0317
UGP2_Q16851_123_LNGGLGTSMGCK (UniProt Q16851) | -0.0886 | -0.138
UGGT1_Q9NYU2_159_TCESDTLEALLLTASERPKPLLFK (UniProt Q9NYU2) | -0.115 | -0.0147
UROS_P10746_143_ESSALPLLFPCGNLKR (UniProt P10746) | -0.448 | -0.138
USF1_P22415_248_ACDYIQELR (UniProt P22415) | -0.0926 | -0.184
UBR7_Q8N806_99+101_CDCGNSK (UniProt Q8N806) | -0.0898 | -0.168
USO1_O60763_383_CAVLYCFQCFLYK (UniProt O60763) | 0.0534 | 0.0182
USP3_Q9Y6I4_362_NQENGPVCSLR (UniProt Q9Y6I4) | 0.00442 | 0.0397
USP48_Q86UV5_80_GNPNCLVGIGEHIWLGEIDENSFHNIDDPNCER (UniProt Q86UV5) | -0.0286 | -0.224
UHRF1BP1L_A0JNW5_1235_HYLCNRPVGSDQK (UniProt A0JNW5) | -0.0118 | -0.0626
USP4_Q13107_649_QPLPDEFGSSPLEPGACNGSR (UniProt Q13107) | -0.297 | -0.454
UGDH_O60701_9+20_ICCIGAGYVGGPTCSVIAHMCPEIR (UniProt O60701) | -0.00335 | 0.117
UNK_Q9C0B0_147_NGLHCAFAHGPHDLR (UniProt Q9C0B0) | 0.119 | 0.0621

Target | probe-labelled cysteine peptide fold change (10 µM) | probe-labelled cysteine peptide fold change (50 µM)
UQCRC1_P31930_453_YIYDQCPAVAGYGPIEQLPDYNR (UniProt P31930) | 0.0471 | 0.0548
UBR7_Q8N806_101_CDCGNSK (UniProt Q8N806) | -0.0992 | -0.0448
UROS_P10746_241_ALAAQGLPVSCTAESPTPQALATGIRK (UniProt P10746) | -0.0739 | -0.126
UBR5_O95071_769_YCIFDLATGK (UniProt O95071) | 0.0824 | 0.178
UNC13D_Q70J99_992_DLHPLFDETFEFLVPAEPCRK (UniProt Q70J99) | -0.138 | -0.107
USP4_Q13107_7_AEGGGCR (UniProt Q13107) | 0.644 | 0.609
UHRF1_Q96T88_744_VEETFQCICCQELVFRPITTVCQHNVCK (UniProt Q96T88) | -0.0365 | 0.124
UGGT1_Q9NYU2_880_MDFILSHAVYCR (UniProt Q9NYU2) | 0.288 | 0.305
USP48_Q86UV5_652+658_KEEEELNFNEDILCPHGELCISENERR (UniProt Q86UV5) | -0.0226 | -0.347
USP4_Q13107_624_LTLESLYQAVCDR (UniProt Q13107) | 0.0299 | 0.035
UGGT1_Q9NYU2_1475_SLPQEWLWCETWCDDASK (UniProt Q9NYU2) | 0.222 | -0.0572
USP40_Q9NVE5_172_LYHGTIVNQIVCK (UniProt Q9NVE5) | -0.217 | -0.0373
UBR5_O95071_883_CDYEACR (UniProt O95071) | 0.0209 | 0.0883
USP24_Q9UPU5_116_NDENGNCSGEGIEFPTTNLYELESR (UniProt Q9UPU5) | 0.0268 | -0.161
UNC45A_Q9H3U1_34_CGDYGGALAAYTQALGLDATPQDQAVLHR (UniProt Q9H3U1) | 0.0192 | -0.224
UNC45A_Q9H3U1_650_LLAAGVVSAMVCMVK (UniProt Q9H3U1) | -0.155 | 0.00824
UCHL5_Q9Y5K5_88_QVINNACATQAIVSVLLNCTHQDVHLGETLSEFK (UniProt Q9Y5K5) | 0.0243 | -0.0045
USP33_Q8TEY7_278_CLMDLLHEELK (UniProt Q8TEY7) | -0.125 | -0.0604
UHRF1_Q96T88_302_SGPSCK (UniProt Q96T88) | -0.075 | 0.0571
USP20_Q9Y2K6_8_DLCPHLDSIGEVTKEDLLLK (UniProt Q9Y2K6) | -0.12 | -0.352
USP7_Q93009_315_GTCVEGTIPK (UniProt Q93009) | -0.00682 | -0.0446

Target | probe-labelled cysteine peptide fold change (10 µM) | probe-labelled cysteine peptide fold change (50 µM)
UHRF2_Q96PU4_42_VWALFDVRPECQR (UniProt Q96PU4) | -0.00231 | 0.0277
URB2_Q14146_1380_LHNVLFSILQCHPK (UniProt Q14146) | 0.199 | 0.859
UNC13D_Q70J99_505_ALLGLVQDVIGDLHQCQR (UniProt Q70J99) | 0.505 | 0.384
UBR5_O95071_51_QCVVGPNHAAFLLEDGR (UniProt O95071) | 0.022 | 0.185
USP47_Q96K76_1309_VSTLNVWPLYICDDGAVIFYR (UniProt Q96K76) | -0.154 | -0.305
UNC119B_A6NIH7_85_VTENYLCKPEDNIYSIDFTR (UniProt A6NIH7) | -0.0289 | -0.158
UGP2_Q16851_276_RCEFVMEVTNK (UniProt Q16851) | 0.106 | 0.0365
USP13_Q92995_231_ENLWLNLTDGSVLCGK (UniProt Q92995) | -0.0761 | 0.217
UBR7_Q8N806_158_RPYPDPEDEIPDEMIQCVVCEDWFHGR (UniProt Q8N806) | 0.0314 | -0.0531
URI1_O94763_268_NTNVNAMHQVTDSHTPCHK (UniProt O94763) | 0.0292 | -0.235
USP34_Q70CQ2_2062_DTLEGDNMYTCSHCGK (UniProt Q70CQ2) | 0.13 | 0.0298
UNC13D_Q70J99_255_CREDQWYPLEPR (UniProt Q70J99) | -0.0799 | -0.0552
UBR5_O95071_691_FPGTSSNTNCQNSSGPDADPSSLLQDCR (UniProt O95071) | -0.0989 | 0.165
UBTF_P17480_309_DKFDGRPTKPPPNSYSLYCAELMANMK (UniProt P17480) | -0.211 | -0.446
USP14_P54578_359_FPLMLDMYELCTPELQEK (UniProt P54578) | -0.0993 | -0.0838
UBTF_P17480_309_FDGRPTKPPPNSYSLYCAELMANMK (UniProt P17480) | -0.0778 | -0.228
URB2_Q14146_205_AFGDVTAHLLQPCLVLR (UniProt Q14146) | 0.0286 | -0.00423
USP34_Q70CQ2_1768_HLADCIR (UniProt Q70CQ2) | 0.151 | 0.0972
USP3_Q9Y6I4_98_CDDFVVNDTK (UniProt Q9Y6I4) | 0.0259 | -0.0695
USO1_O60763_678_CQNEQLQTAVTQQVSQIQQHK (UniProt O60763) | 0.0982 | -0.144
UQCC2_Q9BRT2_13_LCEEWPVDETK (UniProt Q9BRT2) | -0.0963 | -0.0733

Target | probe-labelled cysteine peptide fold change (10 µM) | probe-labelled cysteine peptide fold change (50 µM)
UQCRC2_P22695_125_ENMAYTVECLR (UniProt P22695) | 0.0726 | 0.0542
USP42_Q9H9J4_867_SEEPCEQPLLVHPSGDHAR (UniProt Q9H9J4) | 0.0739 | -0.132
UFL1_O94874_708_CVPQIIAFLNSK (UniProt O94874) | 0.0278 | 0.00881
USP19_O94966_258_NPGKDDCAK (UniProt O94966) | 0.0406 | -0.0659
USP19_O94966_833_GLCRPENIGYPFLVSVPASR (UniProt O94966) | 0.0428 | 0.00179
UNC45A_Q9H3U1_853_AAAGGLAMLTSMRPTLCSR (UniProt Q9H3U1) | -0.0709 | -0.204
UHRF1BP1L_A0JNW5_618_HCPNCR (UniProt A0JNW5) | -0.304 | 0.0935
UROS_P10746_14_EDDCGQDPYIR (UniProt P10746) | 0.0942 | -0.0191
USP16_Q9Y5T5_205_GLSNLGNTCFFNAVMQNLSQTPVLR (UniProt Q9Y5T5) | -0.356 | -0.392
UPF1_Q92900_374_LMQGDEICLR (UniProt Q92900) | -0.0755 | -0.115
USP39_Q53GS9_105_HCPYLDTINR (UniProt Q53GS9) | -0.0864 | -0.231
UBTD2_Q8WUN7_122_YQLPVYCLAPPINMIEEK (UniProt Q8WUN7) | -0.0496 | -0.00366
UGP2_Q16851_276_CEFVMEVTNK (UniProt Q16851) | 0.0377 | 0.225
UBR7_Q8N806_319_LCTCQDCMK (UniProt Q8N806) | -0.0302 | -0.14
UIMC1_Q96RL1_661_VPSPGMEEAGCSR (UniProt Q96RL1) | -0.136 | -0.163
UGGT1_Q9NYU2_1475+1479_SLPQEWLWCETWCDDASK (UniProt Q9NYU2) | -0.161 | 0.0507
UHRF1BP1L_A0JNW5_81_THPICLSLDK (UniProt A0JNW5) | -0.0635 | -0.0442
USP16_Q9Y5T5_24_TVPIDDSSETLEPVCR (UniProt Q9Y5T5) | -0.101 | -0.248
USP22_Q9UPT9_171_KITSNCTIGLR (UniProt Q9UPT9) | 0.0229 | 0.01
USP16_Q9Y5T5_726_FPEILDLAPFCTLK (UniProt Q9Y5T5) | -0.0714 | -0.123
UQCRC1_P31930_268_HLGGIPWTYAEDAVPTLTPCR (UniProt P31930) | -0.129 | -0.087

Record cards (already shown):
UNC119B_A6NIH7_85_VTENYLCKPEDNIYSIDFTR (UniProt A6NIH7) as listed: probe-labelled cysteine peptide fold change (10 µM) = -0.0289; probe-labelled cysteine peptide fold change (50 µM) = -0.158
UQCC2_Q9BRT2_13_LCEEWPVDETK (UniProt Q9BRT2) as listed: probe-labelled cysteine peptide fold change (10 µM) = -0.0963; probe-labelled cysteine peptide fold change (50 µM) = -0.0733
